Assay [1] addresses T1, Flag-G3BP2 wild type (human) (UniProt Q9UN86).
T1 sequence: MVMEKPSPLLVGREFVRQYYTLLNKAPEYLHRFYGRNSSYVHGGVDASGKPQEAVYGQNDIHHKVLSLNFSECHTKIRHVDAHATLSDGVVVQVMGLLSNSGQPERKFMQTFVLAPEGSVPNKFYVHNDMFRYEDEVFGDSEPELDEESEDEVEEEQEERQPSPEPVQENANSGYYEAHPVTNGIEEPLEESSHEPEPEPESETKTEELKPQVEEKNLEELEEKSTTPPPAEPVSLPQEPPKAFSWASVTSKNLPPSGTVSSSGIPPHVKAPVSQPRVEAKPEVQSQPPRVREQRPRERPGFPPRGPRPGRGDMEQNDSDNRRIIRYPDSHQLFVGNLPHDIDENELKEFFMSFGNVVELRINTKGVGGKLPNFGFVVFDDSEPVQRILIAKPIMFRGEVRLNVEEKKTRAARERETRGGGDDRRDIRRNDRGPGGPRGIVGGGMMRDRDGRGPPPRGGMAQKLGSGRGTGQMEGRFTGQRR
Nature of the assay: co-IP; Tu212 cells (text: Tu686 and Tu212) transfected with Flag-PRMT5 or Flag-G3BP2; precipitated with anti-Flag.

The chains behind the UniProt entries cited, without tags or fusion partners. Where a name states a change or a piece, a line headed by the entry shows the natural chain unless it says otherwise. Residues count along the entry.
UniProt Q93009: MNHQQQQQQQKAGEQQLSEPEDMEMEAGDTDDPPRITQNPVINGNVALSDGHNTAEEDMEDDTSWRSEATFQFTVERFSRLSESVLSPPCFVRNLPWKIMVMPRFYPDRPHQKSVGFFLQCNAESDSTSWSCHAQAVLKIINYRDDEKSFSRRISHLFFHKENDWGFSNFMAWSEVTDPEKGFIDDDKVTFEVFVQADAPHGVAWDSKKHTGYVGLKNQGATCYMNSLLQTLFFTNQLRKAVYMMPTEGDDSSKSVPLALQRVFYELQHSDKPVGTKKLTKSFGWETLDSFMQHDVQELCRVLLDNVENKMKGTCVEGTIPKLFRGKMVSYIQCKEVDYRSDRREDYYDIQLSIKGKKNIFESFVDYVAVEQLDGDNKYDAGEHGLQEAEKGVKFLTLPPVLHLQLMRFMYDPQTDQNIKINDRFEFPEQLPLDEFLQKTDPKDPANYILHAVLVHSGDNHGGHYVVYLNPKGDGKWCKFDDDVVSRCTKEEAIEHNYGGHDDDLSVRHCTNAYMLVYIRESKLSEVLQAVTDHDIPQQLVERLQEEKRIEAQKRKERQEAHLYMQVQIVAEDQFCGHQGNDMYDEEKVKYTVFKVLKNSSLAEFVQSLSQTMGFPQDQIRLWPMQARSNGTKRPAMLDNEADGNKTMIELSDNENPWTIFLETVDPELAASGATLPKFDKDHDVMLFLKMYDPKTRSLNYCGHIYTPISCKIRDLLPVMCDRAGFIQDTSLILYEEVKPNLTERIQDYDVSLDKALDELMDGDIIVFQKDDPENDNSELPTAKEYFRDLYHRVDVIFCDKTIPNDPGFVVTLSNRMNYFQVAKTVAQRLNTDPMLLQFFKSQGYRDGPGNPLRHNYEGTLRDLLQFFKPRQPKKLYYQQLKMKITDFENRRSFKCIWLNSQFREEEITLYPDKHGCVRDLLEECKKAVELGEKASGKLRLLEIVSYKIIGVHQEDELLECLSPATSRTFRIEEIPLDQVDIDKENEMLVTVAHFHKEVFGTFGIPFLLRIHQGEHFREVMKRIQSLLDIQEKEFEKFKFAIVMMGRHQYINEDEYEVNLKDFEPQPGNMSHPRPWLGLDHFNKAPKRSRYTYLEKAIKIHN
UniProt O14744: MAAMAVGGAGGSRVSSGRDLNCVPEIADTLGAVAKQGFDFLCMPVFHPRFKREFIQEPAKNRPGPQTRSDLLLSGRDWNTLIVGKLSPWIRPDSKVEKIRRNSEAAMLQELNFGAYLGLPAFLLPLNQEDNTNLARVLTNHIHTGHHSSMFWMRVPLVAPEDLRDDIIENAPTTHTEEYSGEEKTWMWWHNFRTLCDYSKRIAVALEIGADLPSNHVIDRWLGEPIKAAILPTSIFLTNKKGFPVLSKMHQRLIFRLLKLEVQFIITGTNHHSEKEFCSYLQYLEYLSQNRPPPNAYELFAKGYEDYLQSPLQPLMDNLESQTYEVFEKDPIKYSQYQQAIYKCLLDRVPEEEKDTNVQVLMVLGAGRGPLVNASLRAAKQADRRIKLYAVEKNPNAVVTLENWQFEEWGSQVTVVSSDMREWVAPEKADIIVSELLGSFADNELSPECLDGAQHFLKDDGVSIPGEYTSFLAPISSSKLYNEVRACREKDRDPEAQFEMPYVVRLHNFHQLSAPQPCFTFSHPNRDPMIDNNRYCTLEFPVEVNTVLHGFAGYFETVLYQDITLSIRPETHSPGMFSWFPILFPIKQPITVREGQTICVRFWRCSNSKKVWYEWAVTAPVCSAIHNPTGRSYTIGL
GST-PRMT5 421-637 (enzymatic activity region): residues 421-637 of O14744

In assay [2] the target is T1, Flag-G3BP2 wild type (human). Put plainly: co-IP; HEK293 cells co-transfected with Flag-G3BP2 constructs and HA-USP7; precipitated with anti-Flag, blotted for HA-USP7.
For assay [3], the target named is HA-USP7 (UniProt Q93009). Put plainly: co-IP; HEK293 cells co-transfected with Flag-G3BP2 wild type or R468K, PRMT5 and HA-USP7, MG132 for 6 h; precipitated with anti-HA, blotted with anti-Flag.
Assay [4] deals with GST-PRMT5 full length (UniProt O14744). Put plainly: pull-down; GST-PRMT5 full length or truncations on GST beads; Flag-G3BP2 from HEK293 cells blotted with anti-Flag; pull-down buffer 50 mM Tris-Cl pH 8.0, 200 mM NaCl, 10 mM MgCl2, 1% NP-40, 1 mM EDTA, 1 mM DTT, 2 h at 4 °C; only the target purified.
Assay [5] addresses GST-PRMT5 421-637 (enzymatic activity region) (UniProt O14744). The assay is described as above.
In assay [6] the target is PRMT5 in the HEK293 co-immunoprecipitation of Fig. 1B, C (not stated (endogenous in HEK293 or transfected)) (UniProt O14744). Put plainly: co-IP; HEK293 cells; IgG as negative control.
Assay [7] concerns the target Ubiquitin-Specific Peptidase 7 (USP7), endogenous (human (endogenous in Tu686)) (UniProt Q93009). Put plainly: co-IP; Tu686 cells, negative control siRNA or PRMT5 siRNA, 40 μM MG132 for 6 h; precipitated with anti-USP7 or anti-G3BP2 antibody.
Assay [8] has as its target Flag-PRMT5 (UniProt O14744). Put plainly: co-IP; Tu212 cells (text: Tu686 and Tu212) transfected with Flag-PRMT5 or Flag-G3BP2; precipitated with anti-Flag.

No constants are given. Whether binding was seen depends on the method and setting. In cells and extracts the contact can be indirect. Some results given as binding are weak or reduced against the parent protein; the word gives no strength. For some assays here: Sequences can lack the tags named with a protein.

Consider “PRMT5, endogenous (from UniProt O14744 1-637) (enzyme)”, for which the binding entry in assay [1] is given as “binds”.
Consider “HA-USP7 (from UniProt Q93009 1-1102) (enzyme)”, for which the binding result in assay [2] is given as “binds”.

B1: Flag-G3BP2 wild type (protein, UniProt Q9UN86 1-482)
chain: T1 sequence
For B1, the binding entry in assay [3], in assay [4] and in assay [5] was “binds” in each case.

B2: G3BP2 in the HEK293 co-immunoprecipitation of Fig. 1B, C (protein, UniProt Q9UN86 1-482)
chain: T1 sequence
Regarding B2, the binding entry in assay [6] is recorded as “binds”.

B3: GTPase-activating protein-binding protein 2 (G3BP2), endogenous (protein, UniProt Q9UN86 1-482)
chain: T1 sequence
B3: the binding entry in assay [7] and in assay [8] was “binds” each time.

These data come from PMC9988876.
